## Primary screen of a compound library

Chains of the proteins cited; added tags and fusions are not shown. Residues count along the entry.
UniProt Q4DA54, 1-478: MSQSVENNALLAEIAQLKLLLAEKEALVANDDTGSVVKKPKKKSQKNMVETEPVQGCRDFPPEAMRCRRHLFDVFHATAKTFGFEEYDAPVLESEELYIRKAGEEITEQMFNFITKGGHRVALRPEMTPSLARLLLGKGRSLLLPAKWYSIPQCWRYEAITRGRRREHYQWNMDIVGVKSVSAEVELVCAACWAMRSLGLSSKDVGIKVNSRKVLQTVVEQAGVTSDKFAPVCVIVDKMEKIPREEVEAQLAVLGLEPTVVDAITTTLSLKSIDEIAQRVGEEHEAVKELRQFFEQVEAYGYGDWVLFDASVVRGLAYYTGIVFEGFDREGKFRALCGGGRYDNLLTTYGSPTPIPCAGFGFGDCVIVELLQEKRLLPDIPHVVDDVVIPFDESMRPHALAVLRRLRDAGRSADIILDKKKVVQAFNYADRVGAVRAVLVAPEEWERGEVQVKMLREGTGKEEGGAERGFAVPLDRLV
UniProt P9WPC5, whole entry: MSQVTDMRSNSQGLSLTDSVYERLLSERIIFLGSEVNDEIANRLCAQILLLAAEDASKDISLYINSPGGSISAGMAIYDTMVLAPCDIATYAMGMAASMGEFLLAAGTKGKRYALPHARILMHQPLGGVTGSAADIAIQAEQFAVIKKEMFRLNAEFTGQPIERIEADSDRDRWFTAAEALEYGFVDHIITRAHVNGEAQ
UniProt P9WPC3, whole entry partner: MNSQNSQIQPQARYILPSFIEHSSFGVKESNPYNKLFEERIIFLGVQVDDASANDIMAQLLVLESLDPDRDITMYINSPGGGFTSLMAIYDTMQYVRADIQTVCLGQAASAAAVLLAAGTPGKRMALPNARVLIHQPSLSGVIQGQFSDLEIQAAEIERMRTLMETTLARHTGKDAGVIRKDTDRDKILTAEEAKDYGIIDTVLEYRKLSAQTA
UniProt Q8IDJ8, 1-583: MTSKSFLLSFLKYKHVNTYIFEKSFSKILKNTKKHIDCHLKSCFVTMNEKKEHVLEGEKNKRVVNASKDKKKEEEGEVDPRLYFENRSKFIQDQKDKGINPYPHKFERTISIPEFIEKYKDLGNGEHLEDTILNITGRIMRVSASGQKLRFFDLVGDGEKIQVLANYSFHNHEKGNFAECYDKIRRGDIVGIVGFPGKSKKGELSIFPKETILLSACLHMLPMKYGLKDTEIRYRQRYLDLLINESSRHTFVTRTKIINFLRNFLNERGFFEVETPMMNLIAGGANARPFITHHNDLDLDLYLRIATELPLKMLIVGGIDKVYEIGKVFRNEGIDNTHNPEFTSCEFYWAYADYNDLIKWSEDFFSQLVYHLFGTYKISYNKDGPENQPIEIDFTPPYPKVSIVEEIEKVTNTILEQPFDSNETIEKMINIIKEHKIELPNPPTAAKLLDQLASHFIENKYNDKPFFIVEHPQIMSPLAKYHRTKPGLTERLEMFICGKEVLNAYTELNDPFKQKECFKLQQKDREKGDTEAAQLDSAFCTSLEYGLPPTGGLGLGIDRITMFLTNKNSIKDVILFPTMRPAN

Measurements from “University of Dundee, Small-Polar-MMV Screening Library” (2021), ChEMBL document CHEMBL3988442.

The filed quantity is “Percent Effect” (%). The record does not define 0% and 100%; most values in the screen are far below 50% and negative numbers occur (in some assays of this library far below -100). This is an unselected part of the compounds tested. Two or more numbers in one place are separate tests of the same structure; such repeats can differ widely.

Leishmania in macrophages: 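Cell assay of Leishmania donovani living inside macrophages; the read-out is not stated. Concentration: 30 µM. Direction is inferred from retests: higher values go with stronger inhibition. Size under these conditions: about 69,000 compounds, about 1,000 of them at 50% or above in at least one test.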
TcHisRS: 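Histidine-tRNA ligase, Trypanosoma cruzi CL Brener (UniProt Q4DA54). Enzyme assay of histidyl-tRNA synthetase; the read-out is not stated. Tested at 30 µM. Direction is inferred from retests: higher values go with stronger inhibition. Of about 69,000 compounds tested this way, about 31 (0.045%) reached 50% or more in at least one test.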
ClpP1P2: 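Protease assay of ClpP1P2, read by the AMC dye that it sets free. Target: ClpP1P2, Mycobacterium tuberculosis (UniProt P9WPC5 and UniProt P9WPC3). Concentration: 50 µM. Higher reads as stronger inhibition, judged from the few compounds that gave an IC50. Most other retested compounds had strongly negative values. About 69,000 compounds were tested under these conditions; 0.015% (about 10) showed 50% or more at least once.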
Toxoplasma: 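Assay of Toxoplasma gondii numbers, read through their beta-galactosidase reporter with a colour substrate. Compounds at 10 µM. The record gives no direction; the compounds picked for IC50 retests had high values, so higher reads as fewer parasites. Of about 67,000 compounds tested this way, about 260 (0.38%) reached 50% or more in at least one test.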
PfKRS1: 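Lysine-tRNA ligase, Plasmodium falciparum 3D7 (UniProt Q8IDJ8). Enzyme assay of the cytosolic lysyl-tRNA synthetase in 384-well plates, read by luminescence. Tested at 30 µM. Direction is inferred from only a few compounds that gave an IC50; most scored high, so higher reads as stronger inhibition. About 69,000 compounds were tested under these conditions; 0.071% (about 49) showed 50% or more at least once.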

Result for Cc1nc(COCc2cnc3n2CCN(CC2CCC2)C3C)cs1 (centres undefined) was TcHisRS: 5.946%; ClpP1P2: 0.7239%; PfKRS1: 1.804%.
Result for CC(C)c1ccc(OCCNC(=O)CN2CCN(C)CC2C)cc1 (centres undefined) was Leishmania in macrophages: 20.34%; TcHisRS: 7.289%; ClpP1P2: -41.08%; Toxoplasma: 10.17%; PfKRS1: 0.2943%.
Result for CCC(NCc1ccccc1C)c1ccccc1OCC(=O)NC (centres undefined) was Leishmania in macrophages: -5.253%; TcHisRS: 1.053%; ClpP1P2: -9.868%; Toxoplasma: -6.283%; PfKRS1: 2.772%.
Result for O=C1COC2(CCN(Cc3ccncc3)CC2)CN1 was TcHisRS: 1.22%; ClpP1P2: -0.4096%; PfKRS1: 8.536%.
Result for CCOc1cccc(COC(=O)c2cc(Cl)ccn2)n1 was Leishmania in macrophages: 1.014%; TcHisRS: 1.316%; ClpP1P2: -15.17%; Toxoplasma: -5.936%; PfKRS1: -6.734%.
Result for Cc1ccc2oc(C(=O)N3CCCC(n4cccn4)C3)cc2n1 (centres undefined) was Leishmania in macrophages: -7.994%; TcHisRS: 4.985%; ClpP1P2: -5.117%; Toxoplasma: 8.059%; PfKRS1: -2.978%.
Result for Nc1nccnc1C1CN(C(=O)COc2cccnc2)CCO1 (centres undefined) was Leishmania in macrophages: 8.171%; TcHisRS: 4.981%; ClpP1P2: -7.144%; Toxoplasma: -1.472%; PfKRS1: 1.969%.
Result for Cc1n[nH]c(C2CN(C(=O)c3cc4c(s3)CCCC4)CCO2)n1 (centres undefined) was Leishmania in macrophages: 24.28%; TcHisRS: 4.571%; ClpP1P2: -11.07%; Toxoplasma: 9.428%; PfKRS1: -0.4078%.
Result for COC(C)(C)C(=O)NCC1CCN(Cc2cc3ccccc3[nH]2)C1 (centres undefined) was Leishmania in macrophages: 2.188% and 21.29%; TcHisRS: -1.205%; ClpP1P2: -13.93%; Toxoplasma: -15.7%; PfKRS1: 6.026%.
Result for Cc1nc(N(C)C)nc(NCCc2ccccn2)c1C was Leishmania in macrophages: 47.18%; TcHisRS: 8%; ClpP1P2: -4.763%; Toxoplasma: 15.41%; PfKRS1: 2.485%.
Result for CCc1nc(CN2CCCC(NCc3nc4cccnc4[nH]3)C2)no1 (centres undefined) was Leishmania in macrophages: 10.54%; TcHisRS: 0.7519%; ClpP1P2: -15.3%; PfKRS1: 12.34%.
Result for Oc1cc(CN2CCC(O)(Cn3ccnc3)CC2)nc2c(Cl)cccc12 was Leishmania in macrophages: 22.5%; TcHisRS: 7.263%; ClpP1P2: -4.543%; Toxoplasma: -6.732%; PfKRS1: 0.8157%.
Result for N#Cc1c2n(c3c(=O)[nH]cnc13)CCCCC2 was Leishmania in macrophages: 19.13%; TcHisRS: 1.288%; ClpP1P2: -6.202%; Toxoplasma: 29.7%; PfKRS1: 1.656%.
Result for Cc1ncsc1C(=O)NCCN1CCCCCC1=O was Leishmania in macrophages: -61.17%; TcHisRS: 9.453%; ClpP1P2: 11.04%; Toxoplasma: 13.31%; PfKRS1: -0.6102%.
Result for [H][C@@]12COC[C@@H](CC(=O)N3CCCO3)[C@]1([H])CN(Cc1c(C)noc1C)C2 was Leishmania in macrophages: 1.045%; Toxoplasma: -27.98%.
Result for CC1CC(=O)c2cnc3nc(N4CCOCC4)[nH]c(=O)c3c2C1 (centres undefined) was Leishmania in macrophages: -7.781%; TcHisRS: 8.247%; ClpP1P2: -45.57%; Toxoplasma: -0.1997%; PfKRS1: 4.811%.
Result for Cc1cc(C(=O)N2CCCN(Cc3cnn(C)c3)CC2)no1 was Leishmania in macrophages: 1.084%; TcHisRS: 4.985%; ClpP1P2: 1.122%; Toxoplasma: 1.8%; PfKRS1: 0.1004%.
Result for O=C1CCCN1Cc1nnn2c1CN(c1cccnc1)CCC2 was TcHisRS: 0.5587%; ClpP1P2: 12.97%; PfKRS1: 2.355%.
Result for CC(C)(C)n1cc(C(=O)N2CCN(Cc3ccco3)CC2)cn1 was Leishmania in macrophages: -8.304%; TcHisRS: 7.692%; ClpP1P2: -20.51%; Toxoplasma: -2.334%; PfKRS1: 1.029%.
Result for CN1CCC[C@H]1c1nc(-c2cncnc2N)no1 was Leishmania in macrophages: 14.53%; TcHisRS: 1.087%; ClpP1P2: -9.476%; Toxoplasma: 22.1%; PfKRS1: -0.2018%.
Result for Cc1cccc(-c2noc(CNC(C)Cn3cc(C)cn3)n2)c1 (centres undefined) was Leishmania in macrophages: 14.16%; TcHisRS: -1.339%; ClpP1P2: -34.02%; Toxoplasma: 15.84%; PfKRS1: 4.994%.

Some entries from above, unchanged:

{"compound": "CCc1nc(CN2CCCC(NCc3nc4cccnc4[nH]3)C2)no1", "stereo": "centres undefined", "Leishmania in macrophages": 10.54, "TcHisRS": 0.7519, "ClpP1P2": -15.3, "PfKRS1": 12.34}
{"compound": "Cc1ccc2oc(C(=O)N3CCCC(n4cccn4)C3)cc2n1", "stereo": "centres undefined", "Leishmania in macrophages": -7.994, "TcHisRS": 4.985, "ClpP1P2": -5.117, "Toxoplasma": 8.059, "PfKRS1": -2.978}